Source: patent US20220340547A1, “INDOLE DERIVATIVE-CONTAINING INHIBITOR, PREPARATION METHOD THEREFOR AND APPLICATION THEREOF” (Shanghi Hansoh Biosoh Biomedical Co., Ltd., priority 2019, published 2022)
Some results were stated once for a whole list of compounds, not compound by compound.

system: Ba/F3 EGFR-D770-N771ins_SVD xenograft; experiment: In vivo pharmacodynamic study in mouse pro-B cell Ba/F3 EGFR-D770-N771ins_SVD xenograft model; settings: 40 mpk, 14 days of continuous oral administration
Procedure: In Vivo Pharmacodynamic Study of the Compound of the Present Invention in the Mouse Pro-B Cell Ba/F3 EGFR-D770-N771ins_SVD Xenograft Model
The in vivo efficacy of the compound in the mouse pro-B cell Ba/F3 EGFR-D770-N771ins_SVD xenograft model was evaluated.
BALB/cA nude mice (6-8 weeks old, female) were purchased from Shanghai Sino-British SIPPR/BK Lab Animal Co., Ltd.
a. […] The resuscitated cells were placed in the cell culture flasks (cell type, date, the name of the culturing person and the like were marked on the flask wall), and incubated in a CO2 incubator (the incubator temperature was 37° C., and the CO2 concentration was 5%).
b. The cells were passaged every three days. After passage, the cells were further incubated in the CO2 incubator. The process was repeated until the number of cells met the requirements of the in vivo pharmacodynamic study.
c. The cultured cells were collected and counted by the automatic cell counter. According to the counting results, the cells were resuspended in PBS to prepare a cell suspension (density: 2×10^7 cells/mL), which was placed in an ice box for later use.
d. The test nude mice were inoculated in turn (0.1 mL of cell suspension per mouse).
a. Tumor was measured on Day 8 to Day 14 after inoculation depending on the tumor growth, and tumor size was calculated.
Tumor volume calculation: tumor volume (mm^3)=length (mm)×width (mm)×width (mm)/2
b. According to the body weight and tumor size of the tumor-bearing mouse, the mice were randomly grouped (5 mice per group).
d. The tumor was measured and the mouse was weighed twice a week after the test drug was administrated.
Calculation of the Tumor Growth Inhibition Rate TGI (%) of the Compound: […]

For C=CC(=O)Nc1cc(Nc2ncc(-c3ncco3)c(-c3cn(C4CC4)c4ccccc34)n2)c(OC)cc1N(C)CCN(C)C [Example 37, N-(5-((4-(1-Cyclopropyl-1H-indol-3-yl)-5-(oxazol-2-yl)pyrimidin-2-yl)amino)-2-((2-(dimethylamino)ethyl)(methyl)amino)-4-methoxyphenyl)acrylamide], which “effective / ineffective in the Ba/F3 EGFR-D770-N771ins_SVD pharmacodynamic model” value (“effective / ineffective” for short) is on record?
Its value is “effective (TGI≥60% indicates that the compound is effective in this model)”.

For C=CC(=O)Nc1cc(Nc2ncc(C#N)c(-c3cn(C4CC4)c4ccccc34)n2)c(OC)cc1N(C)CCN(C)C [Example 67, N-(5-((5-Cyano-4-(1-cyclopropyl-1H-indol-3-yl)pyrimidin-2-yl)amino)-2-((2-(dimethylamino)ethyl)(methyl)amino)-4-methoxyphenyl)acrylamide], which “effective / ineffective” value is on record?
The value was “effective (TGI≥60% indicates that the compound is effective in this model)”.

Which “effective / ineffective” value does the source give for C=CC(=O)Nc1cc(Nc2ncc(-c3ncco3)c(-c3cn(C)c4ccccc34)n2)c(OC)cc1N(C)CCN(C)C [Example 81, N-(2-((2-(Dimethylamino)ethyl)(methyl)amino)-4-methoxy-5-((4-(1-methyl-1H-indol-3-yl)-5-(oxazol-2-yl)pyrimidin-2-yl)amino)phenyl)acrylamide] here?
The value was “effective (TGI≥60% indicates that the compound is effective in this model)”.
